Data published in PMC7876033.
No constants are given. Whether binding was seen depends on the method and setting. Binding calls can cover weak binding; strength is not graded here. For some assays here: Binding seen in cells or lysates may run through a third protein.

molecular target: LeuC:NmVen210 (Arabidopsis thaliana); test: split reporter; BiFC, pDOE-mVenus210 system; Nicotiana benthamiana leaves agroinfiltrated at OD 0.4 and imaged at day 3

| binding | Binder |
| --- | --- |
| binds | IPMDH2:CVen210 (enzyme, UniProt P93832 34-405) AVASPGKKRYTITLLPGDGIGPEVVSIAKNVLQQAGSLEGVEFNFREMPIGGAALDLVGVPLPEETISAAKESDAVLLGAIGGYKWDNNEKHLRPEKGLLQIRAALKVFANLRPATVLPQLVDASTLKREVAEGVDLMVVRELTGGIYFGEPRGIKTNENGEEVGFNTEVYAAHEIDRIARVAFETARKRRGKLCSVDKANVLEASILWRKRVTALASEYPDVELSHMYVDNAAMQLVRDPKQFDTIVTNNIFGDILSDEASMITGSIGMLPSASLSDSGPGLFEPIHGSAPDIAGQDKANPLATILSAAMLLKYGLGEEKAAKRIEDAVLVALNNGFRTGDIYSAGTKLVGCKEMGEEVLKSVDSQVPASV |
| binds weakly | IPMDH3:CVen210 (enzyme, UniProt Q9SA14 35-404) AAASPVKKRYNITLLPGDGIGPEVISVAKNVLQKAGFLQGLEFDFQEMPFGGAALDLVGVPLPEETSTAAKQSDAILLGAIGGYKWDKNEKHLRPEMGLLNIRRDLNVFANLRPATVLPQLVDASTLKKEVAQGVDMMIVRELTGGIYFGEPRGITINENGEEVGFNTEIYAAHEIDRIARVAFETARKRRGKLCSVDKANVLDASILWRKRVTALASEYPDVELSHMYVDNAAMQLVRDPKQFDTIVTNNIFGDILSDEASMITGSIGMLPSASLGESGPGLFEPIHGSAPDIAGQDKANPLATILSAAMLLKYGLGEEKAAKMIEDAVVDALNKGFRTGDIYSPGNKLVGCKEMGEEVLKSVDSKVPV |
| binds | IPMDH1:CVen210 (enzyme, UniProt Q9FMT1 38-409) AAASPGKKRYNIALLPGDGIGPEVISVAKNVLQKAGSLEGLEFDFKEMPVGGAALDLVGVPLPEETFTAAKLSDAILLGAIGGYKWDKNEKHLRPEMALFYLRRDLKVFANLRPATVLPQLVDASTLKKEVAEGVDMMIVRELTGGIYFGEPRGITINENGEEVGVSTEIYAAHEIDRIARVAFETARKRRGKLCSVDKANVLDASILWRKRVTALASEYPDVELSHMYVDNAAMQLIRDPKQFDTIVTNNIFGDILSDEASMITGSIGMLPSASLGESGPGLFEPIHGSAPDIAGQDKANPLATILSAAMLLKYGLGEEKAAKRIEDAVVDALNKGFRTGDIYSPGNKLVGCKEMGEEVLKSVESKVPATV |

molecular target: isopropylmalate isomerase (IPMI) large subunit LeuC (Arabidopsis thaliana); test: two-hybrid; pair-wise; GAL4 DNA-binding domain (pPC97) and GAL4 activation domain (pPC86) fusions co-transformed into yeast strain CG1945; growth on SD/-Trp-Leu-His with 1 mM 3AT

| Binder | binding |
| --- | --- |
| isopropylmalate isomerase (IPMI) small subunit LeuD2 (protein, UniProt Q9LYT7 1-253) MATSQQFLNPTLFKSLASSNKNSCTLCPSPFLQLKSASTIFNYKPLTSSSATIITRVAASSSDSGESITRETFHGLCFVLKDNIDTDQIIPAEYGTLIPSIPEDREKLGSFALNGLPKFYNERFVVPGEMKSKYSVIIGGDNFGCGSSREHAPVCLGAAGAKAVVAESYARIFFRNCVATGEIFPLESEVRICDECKTGDVVTIEHKEDGSSLLINHTTRKEYKLKPLGDAGPVIDAGGIFAYARKAGMIPSA | no binding |
| methylthioalkylmalate synthase 3 (MAM3) (enzyme, UniProt Q9FN52 1-503) MASLLLTSSSMITTSCRSMVLRSGLPIGSSFPSLRLTRPYDKATLFVSCCSAESKKVATSATDLKPIMERRPEYIPNKLPHKNYVRVLDTTLRDGEQSPGAALTPPQKLEIARQLAKLRVDIMEVGFPVSSEEEFEAIKTIAKTVGNEVDEETGYVPVICGIARCKKRDIEATWEALKYAKRPRVMLFTSTSEIHMKYKLKKTKEEVIEMAVNSVKYAKSLGFKDIQFGCEDGGRTEKDFICKILGESIKAGATTVGFADTVGINMPQEFGELVAYVIENTPGADDIVFAIHCHNDLGVATANTISGICAGARQVEVTINGIGERSGNAPLEEVVMALKCRGESLMDGVYTKIDSRQIMATSKMVQEHTGMYVQPHKPIVGDNCFVHESGIHQDGILKNRSTYEILSPEDVGIVKSENSGIVLGKLSGRHAVKDRLKELGYEISDEKFNDIFSRYRELTKDKKRITDADLKALVVNGAEISSEKLNSKGINDLMSSPQISAVV | no binding |
| isopropylmalate isomerase (IPMI) small subunit LeuD3 (protein, UniProt Q9ZW85 1-251) MAASLQSANPTLSRTLASPNKPSSFATFRSPFLRFNSTSVASNFKPLVSREASSSFVTRSAAEPQERKTFHGLCYVVGDNIDTDQIIPAEFLTLVPSNPEEYEKLGSYALVGLPASYKERFVQPGEMKTKYSIIIGGENFGCGSSREHAPVCLGAAGAKAVVAQSYARIFFRNSVATGEVYPLDSEVRVCDECTTGDVATVELREGDSILINHTTGKEYKLKPIGDAGPVIDAGGIFAYARKAGMIPSAAA | no binding |
| methylthioalkylmalate synthase 1 (MAM1) (enzyme, UniProt Q9FG67 1-506) MASSLLTSSVMIPTTGSTVVGRSVLPFQSSLHSLRLTHSYKNPALFISCCSSVSKNAATSSTDLKPVVERWPEYIPNKLPDGNYVRVFDTTLRDGEQSPGGSLTPPQKLEIARQLAKLRVDIMEVGFPGSSEEELETIKTIAKTVGNEVDEETGYVPVICAIARCKHRDIEATWEALKYAKRPRILVFTSTSDIHMKYKLKKTQEEVIEMAVSSIRFAKSLGFNDIQFGCEDGGRSDKDFLCKILGEAIKAGVTVVTIGDTVGINMPHEYGELVTYLKANTPGIDDVVVAVHCHNDLGLATANSIAGIRAGARQVEVTINGIGERSGNASLEEVVMALKCRGAYVINGVYTKIDTRQIMATSKMVQEYTGLYVQAHKPIVGANCFVHESGIHQDGILKNRSTYEILSPEDIGIVKSQNSGLVLGKLSGRHAVKDRLKELGYELDDEKLNAVFSLFRDLTKNKKRITDADLKALVTSSDEISLEKLNGANGLKSNGYIPVPQVSSNV | no binding |

Next, values leading:

| binding | Binder |
| --- | --- |
| no binding | isopropylmalate isomerase (IPMI) small subunit LeuD1 (protein, UniProt Q9ZW84 1-256) MAYSLPTFPQALPCSSTKTSSSLATFRSPFLRFNGSTSLIPSSISITSRGTSSPTIIPRAAASESDSNEALANTTFHGLCYVLKDNIDTDQIIPAGAACTFPSNQQERDEIAAHALSGLPDFHKTRFIEPGENRSKYSIIIGGENFGCGSSREHAPVCLGAAGAKAIVAESYARIFFRNSVATGEVFPLESEVRVCEECKTGDTVTIELSDSGGLLTNHTTGKNYKLKSIGDAGPVIDAGGIFAYARMMGMIPSLA |
| binds weakly | isopropylmalate dehydrogenase 3 (IPMDH3) (enzyme, UniProt Q9SA14 1-404) MAAFLQTNIRLEIIPGRYSSLTDHKFRAPYRIRCAAASPVKKRYNITLLPGDGIGPEVISVAKNVLQKAGFLQGLEFDFQEMPFGGAALDLVGVPLPEETSTAAKQSDAILLGAIGGYKWDKNEKHLRPEMGLLNIRRDLNVFANLRPATVLPQLVDASTLKKEVAQGVDMMIVRELTGGIYFGEPRGITINENGEEVGFNTEIYAAHEIDRIARVAFETARKRRGKLCSVDKANVLDASILWRKRVTALASEYPDVELSHMYVDNAAMQLVRDPKQFDTIVTNNIFGDILSDEASMITGSIGMLPSASLGESGPGLFEPIHGSAPDIAGQDKANPLATILSAAMLLKYGLGEEKAAKMIEDAVVDALNKGFRTGDIYSPGNKLVGCKEMGEEVLKSVDSKVPV |
| binds | isopropylmalate dehydrogenase 1 (IPMDH1) (enzyme, UniProt Q9FMT1 1-409) MAAFLQTNISLNAIKIVPGKYSSLTDHQFRAPYRIRCAAASPGKKRYNIALLPGDGIGPEVISVAKNVLQKAGSLEGLEFDFKEMPVGGAALDLVGVPLPEETFTAAKLSDAILLGAIGGYKWDKNEKHLRPEMALFYLRRDLKVFANLRPATVLPQLVDASTLKKEVAEGVDMMIVRELTGGIYFGEPRGITINENGEEVGVSTEIYAAHEIDRIARVAFETARKRRGKLCSVDKANVLDASILWRKRVTALASEYPDVELSHMYVDNAAMQLIRDPKQFDTIVTNNIFGDILSDEASMITGSIGMLPSASLGESGPGLFEPIHGSAPDIAGQDKANPLATILSAAMLLKYGLGEEKAAKRIEDAVVDALNKGFRTGDIYSPGNKLVGCKEMGEEVLKSVESKVPATV |
| binds | isopropylmalate dehydrogenase 2 (IPMDH2) (enzyme, UniProt P93832 1-405) MAAALQTNIRTVKVPATFRAVSKQSLAPFRVRCAVASPGKKRYTITLLPGDGIGPEVVSIAKNVLQQAGSLEGVEFNFREMPIGGAALDLVGVPLPEETISAAKESDAVLLGAIGGYKWDNNEKHLRPEKGLLQIRAALKVFANLRPATVLPQLVDASTLKREVAEGVDLMVVRELTGGIYFGEPRGIKTNENGEEVGFNTEVYAAHEIDRIARVAFETARKRRGKLCSVDKANVLEASILWRKRVTALASEYPDVELSHMYVDNAAMQLVRDPKQFDTIVTNNIFGDILSDEASMITGSIGMLPSASLSDSGPGLFEPIHGSAPDIAGQDKANPLATILSAAMLLKYGLGEEKAAKRIEDAVLVALNNGFRTGDIYSAGTKLVGCKEMGEEVLKSVDSQVPASV |
